± gives the standard deviation. The entries are a selection whose mix differs from that of the whole data set. Many entries were measured with a wide error. This is one part of the list.
What was measured:
[1] = tested on: MILI (PIWIL2) piRISC loaded with L1MC piRNA (26 nt); experiment: pre-steady-state target cleavage rate (min^-1); higher = faster piRNA-guided slicing of the target; settings: guide: L1MC piRNA 5'p-UAACUAAAUACUAUGCAAGCUGUAGG
Summary of the method: (§1)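 The pre-steady-state cleavage rate was calculated from a burst-and-steady-state fit. Data came from Cleave-'n-Seq, in which […] transcribed, DNA-blocked target RNA library was mixed with 1 nM active affinity-purified piRISC carrying one synthetic guide, with or without 500 nM GTSF1 partner protein, in HEPES–potassium acetate buffer at 33 °C for 0–8 or 0–960 min. Uncleaved targets were sequenced and normalised to depth and to weakly complementary targets, three trials were pooled, and k3 was capped at 0.0001 min^-1.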

[2] = tested on: MIWI (PIWIL1) piRISC loaded with L1MC piRNA (30 nt); experiment: as above; settings: guide: L1MC piRNA 5'p-UAACUAAAUACUAUGCAAGCUGUAGGUCCU
Summary of the method: as §1

[3] = tested on: EfPiwi piRISC loaded with L1MC piRNA (26 nt); experiment: pre-steady-state target cleavage rate (min^-1); guide: L1MC piRNA 5'p-UAACUAAAUACUAUGCAAGCUGUAGG; MIWI and MILI are mouse PIWI proteins and EfPiwi is from a freshwater sponge; tags in brackets are library labels; higher = faster piRNA-guided slicing of the target
Summary of the method: as §1

[4] = auxiliary factor: none (no GTSF1)
[5] = auxiliary factor: 500 nM Ephydatia muelleri Gtsf1
[6] = auxiliary factor: none (no Gtsf1)
[7] = auxiliary factor: 500 nM mouse GTSF1

Row | Sequence | pre-steady-state target cleavage rate [1, 4] | pre-steady-state target cleavage rate [2, 4] | pre-steady-state target cleavage rate [3, 5] | pre-steady-state target cleavage rate [3, 6] | pre-steady-state target cleavage rate [1, 7] | pre-steady-state target cleavage rate [2, 7]
1 | UCCUGGAACAGCUUGCAUAGUAUAUUCAAA | 0.000657 ± 0.0075 | 0.00116 ± 0.006 | 0.00181 ± 0.0037 | 0.000416 ± 0.013 | – | –
2 | UCCUGGAUGAGCUUGCAUAGUAAAAAGUAA | 0.0013 ± 0.0048 | 0.000326 ± 0.0094 | 0.000392 ± 0.021 | 0.000206 ± 0.02 | – | –
3 | UCCUGCUACAGCUUGCAAUGUAUUUUCAAA | 0.000663 ± 0.0068 | 0.000731 ± 0.0098 | 0.00113 ± 0.0074 | 0.000581 ± 0.009 | – | –
4 | UCCUGGUACAGCUUGCAUAGUAUAUACAAA | 0.00106 ± 0.0055 | 0.00144 ± 0.0064 | 0.00182 ± 0.003 | 0.000262 ± 0.03 | – | –
5 | UCCUGGAACAGCUUGCAUAGUUAAUUCAAA | 0.000916 ± 0.0055 | 0.00109 ± 0.0064 | 0.00147 ± 0.0034 | 0.000124 ± 0.028 | – | –
6 | UCCUGGAUGUCGAAGCAUAUUAUUUAGUUA | 0.00198 ± 0.0039 | 0.000779 ± 0.0093 | 0.000375 ± 0.0082 | 0.000421 ± 0.016 | – | –
7 | UCCUGCUACAGCUUGCAUAGUAUAAUGAAA | 0.00116 ± 0.006 | 0.00143 ± 0.0053 | 0.00473 ± 0.0032 | 0.000462 ± 0.013 | – | –
8 | UCCUGGUACAGCUUGCAUUGUAUUUACAAA | 0.00152 ± 0.0066 | 0.00164 ± 0.0048 | 0.000776 ± 0.0065 | 0.000327 ± 0.029 | – | –
9 | UCCUGCUACAGCUUGCAUACUAUUUUCAAA | 0.0012 ± 0.0045 | 0.00145 ± 0.0048 | 0.00206 ± 0.0031 | 0.000252 ± 0.021 | – | –
10 | UCCUCCUACAGCUUGCAUACUAUUUUCAAA | 0.00113 ± 0.0044 | 0.00162 ± 0.0037 | 0.00199 ± 0.0038 | 0.000335 ± 0.016 | – | –
11 | UCCUGGUACAGCUUGCAUUCAAUUUAGAAA | 0.00107 ± 0.0069 | 0.000812 ± 0.0078 | 0.000354 ± 0.0096 | 0.000203 ± 0.03 | – | –
12 | UCCUGGAUGAGCUUGCAUACAUUUUAGAAA | 0.000459 ± 0.012 | 0.000876 ± 0.0077 | 0.000353 ± 0.011 | 0.000278 ± 0.035 | – | –
13 | UCCUGGAACAGCUUCCAUAGUAUUUACAAA | 0.000388 ± 0.017 | 0.000705 ± 0.013 | 0.00119 ± 0.0032 | 0.000457 ± 0.016 | – | –
14 | UCCUGCUACAGCUUGCAUACAUUUUAGUUA | 0.00209 ± 0.0037 | 0.00111 ± 0.0095 | 0.000296 ± 0.01 | 0.000459 ± 0.01 | – | –
15 | UCCUGCUACAGCUAGCAUAGUAUUUAGAAA | 0.00129 ± 0.0053 | 0.00119 ± 0.0053 | 0.00418 ± 0.0021 | 0.000198 ± 0.037 | – | –
16 | UCCUGGAUGUCGAAGCAUAGUUUUUAGAUA | 0.000242 ± 0.015 | 0.000562 ± 0.0089 | 0.000285 ± 0.01 | < 0.0001 | – | –
17 | UCCUGGAUGUCGAAGCACAGUAUUUAGUUA | 0.00118 ± 0.0047 | 0.000899 ± 0.007 | 0.000824 ± 0.007 | 0.000302 ± 0.026 | – | –
18 | UCCUGGAUGUCGUUGCAUAGUAUUUAGAAA | 0.000997 ± 0.0058 | 0.00125 ± 0.0049 | 0.000522 ± 0.0081 | 0.000196 ± 0.037 | – | –
19 | UCCUGGAUGUCGAACGAUAGUAUUUAGUUA | – | – | < 0.0001 | 0.000101 ± 0.041 | 0.000219 ± 0.011 | 0.000171 ± 0.015
20 | UCCUGCUACAGCUUGCAUAGUUAUUACAAA | 0.00155 ± 0.0047 | 0.00134 ± 0.0076 | 0.000949 ± 0.0052 | 0.000178 ± 0.046 | – | –
21 | UCCUGGAUGUCGAAGCAUAGUAUUUAGUGUA | 0.00218 ± 0.0033 | 0.00091 ± 0.0072 | 0.000205 ± 0.023 | 0.000514 ± 0.013 | – | –
22 | UCCUGGAUGUCGUUGCAUAGUAUUUAUGUUA | 0.00205 ± 0.0055 | 0.000901 ± 0.011 | 0.000359 ± 0.013 | 0.000594 ± 0.018 | – | –

Row | Sequence | pre-steady-state target cleavage rate [1, 4] | pre-steady-state target cleavage rate [2, 4] | pre-steady-state target cleavage rate [3, 5] | pre-steady-state target cleavage rate [3, 6] | pre-steady-state target cleavage rate [1, 7] | pre-steady-state target cleavage rate [2, 7]
23 | UCCUCCUACAGCUUGCUUAGUAUUUUCAAA | 0.000975 ± 0.0048 | 0.00106 ± 0.0043 | 0.00322 ± 0.003 | 0.000574 ± 0.011 | – | –
24 | UCCUGGUACAGCUUCCAUAGUAAUUAGUUA | 0.00123 ± 0.0065 | 0.00107 ± 0.0066 | 0.00126 ± 0.0032 | 0.00053 ± 0.011 | – | –
25 | UCCUGCUACAGGAAGCAUAGUAUUUACAAA | 0.000221 ± 0.012 | 0.000458 ± 0.016 | 0.000346 ± 0.011 | < 0.0001 | – | –
26 | UCCUGGUACAGGUUGCAUAGUAUUUUCAAA | 0.00174 ± 0.0046 | 0.00102 ± 0.0056 | 0.0011 ± 0.0033 | 0.000551 ± 0.015 | – | –
27 | UCCUGGAUGUCGAUGCAAAGUAAUUAGUUA | 0.00064 ± 0.0081 | 0.000362 ± 0.012 | 0.000338 ± 0.0078 | 0.000229 ± 0.034 | – | –
28 | UCCUGGAUCAGGUUGCAUAGUAUUUUCAAA | 0.00187 ± 0.0033 | 0.00117 ± 0.0054 | 0.00129 ± 0.0035 | < 0.0001 | – | –
29 | UCCUCCUACAGCUUGCAUAGUUAAUACAAA | 0.000905 ± 0.0049 | 0.000835 ± 0.006 | 0.00102 ± 0.0043 | 0.000207 ± 0.026 | – | –
30 | UCCUGGAACAGCUUGGUUAGUAUUUACAAA | 0.00195 ± 0.0031 | 0.00121 ± 0.0056 | 0.00162 ± 0.003 | 0.00017 ± 0.051 | – | –
31 | UCCUGGAUGUCGAAGCAUAGUAUUCUAGUUA | 0.00158 ± 0.0033 | 0.000463 ± 0.011 | 0.000175 ± 0.023 | 0.00013 ± 0.023 | – | –
32 | UCCUGCUACAGCUUCGUUAGUAUUUUCAAA | 0.000335 ± 0.013 | 0.000103 ± 0.032 | 0.00013 ± 0.026 | < 0.0001 | – | –
33 | UCCUGGAUGUCCUACGAUAGUAUUUAGUUA | 0.000722 ± 0.0067 | 0.00093 ± 0.0062 | 0.000315 ± 0.009 | 0.000318 ± 0.021 | – | –
34 | UCCUGGAUCAGCUUCCAUAGUAUUUAGAAA | 0.000556 ± 0.0071 | 0.000846 ± 0.0062 | 0.00474 ± 0.0027 | 0.000296 ± 0.02 | – | –
35 | UCCUGGAUGUCGUUGCAUAGUAUUUAGGUA | 0.00254 ± 0.004 | 0.00244 ± 0.0032 | 0.000854 ± 0.0065 | 0.000421 ± 0.024 | – | 0.00144 ± 0.0083
36 | UCCUGCUACAGCUUGCAUAGAAUUUUCAAA | 0.00113 ± 0.0069 | 0.00097 ± 0.0054 | 0.00141 ± 0.0034 | < 0.0001 | – | –
37 | UCCUGGAUGAGCUUGCAUGUAUUUAGUUA | 0.00136 ± 0.0056 | 0.000975 ± 0.004 | 0.00153 ± 0.0046 | 0.000989 ± 0.0098 | – | –
38 | UCCUGGAACAGCUUGCAUACAUUUUUCAAA | 0.000547 ± 0.0087 | 0.000232 ± 0.014 | 0.000871 ± 0.0059 | 0.000145 ± 0.059 | – | 0.00253 ± 0.0051
39 | UCCUGGAACAGCUUGCAUAGUAUAAUGAAA | 0.000965 ± 0.0065 | 0.00276 ± 0.0035 | 0.00147 ± 0.0042 | 0.00016 ± 0.028 | – | –
40 | UCCUGGAUCAGCUACCAUAGUAUUUAGAAA | 0.000648 ± 0.0092 | 0.00123 ± 0.0056 | 0.00205 ± 0.0025 | 0.000336 ± 0.023 | – | 0.002 ± 0.0064
41 | UCCUGGAACAGCUUGCAUAAGUAUUUAGUUA | 0.000864 ± 0.0071 | 0.000344 ± 0.0095 | 0.00284 ± 0.0024 | 0.000508 ± 0.014 | – | 0.00489 ± 0.0033
42 | UCCUGGUACAGCUUGCAUAAGUAUUUAGUUA | 0.00316 ± 0.0037 | 0.00052 ± 0.01 | 0.00142 ± 0.0047 | 0.000528 ± 0.022 | – | 0.00262 ± 0.0067
43 | UCCUGGAUGUGCUUGCAUAGUUAAUAGUUA | 0.00221 ± 0.0034 | 0.00228 ± 0.0036 | 0.00166 ± 0.0051 | 0.000509 ± 0.023 | – | 0.00394 ± 0.0044

3 records drawn at random from the list so far:
Row | Sequence | pre-steady-state target cleavage rate [1, 4] | pre-steady-state target cleavage rate [2, 4] | pre-steady-state target cleavage rate [3, 5] | pre-steady-state target cleavage rate [3, 6] | pre-steady-state target cleavage rate [1, 7] | pre-steady-state target cleavage rate [2, 7]
35 | UCCUGGAUGUCGUUGCAUAGUAUUUAGGUA | 0.00254 ± 0.004 | 0.00244 ± 0.0032 | 0.000854 ± 0.0065 | 0.000421 ± 0.024 | – | 0.00144 ± 0.0083
26 | UCCUGGUACAGGUUGCAUAGUAUUUUCAAA | 0.00174 ± 0.0046 | 0.00102 ± 0.0056 | 0.0011 ± 0.0033 | 0.000551 ± 0.015 | – | –
27 | UCCUGGAUGUCGAUGCAAAGUAAUUAGUUA | 0.00064 ± 0.0081 | 0.000362 ± 0.012 | 0.000338 ± 0.0078 | 0.000229 ± 0.034 | – | –
